This passage reports binding results from article PMC4909395.

Protein sequences, listed by entry. Tags and fused reporters are not part of them.
UniProt O14744: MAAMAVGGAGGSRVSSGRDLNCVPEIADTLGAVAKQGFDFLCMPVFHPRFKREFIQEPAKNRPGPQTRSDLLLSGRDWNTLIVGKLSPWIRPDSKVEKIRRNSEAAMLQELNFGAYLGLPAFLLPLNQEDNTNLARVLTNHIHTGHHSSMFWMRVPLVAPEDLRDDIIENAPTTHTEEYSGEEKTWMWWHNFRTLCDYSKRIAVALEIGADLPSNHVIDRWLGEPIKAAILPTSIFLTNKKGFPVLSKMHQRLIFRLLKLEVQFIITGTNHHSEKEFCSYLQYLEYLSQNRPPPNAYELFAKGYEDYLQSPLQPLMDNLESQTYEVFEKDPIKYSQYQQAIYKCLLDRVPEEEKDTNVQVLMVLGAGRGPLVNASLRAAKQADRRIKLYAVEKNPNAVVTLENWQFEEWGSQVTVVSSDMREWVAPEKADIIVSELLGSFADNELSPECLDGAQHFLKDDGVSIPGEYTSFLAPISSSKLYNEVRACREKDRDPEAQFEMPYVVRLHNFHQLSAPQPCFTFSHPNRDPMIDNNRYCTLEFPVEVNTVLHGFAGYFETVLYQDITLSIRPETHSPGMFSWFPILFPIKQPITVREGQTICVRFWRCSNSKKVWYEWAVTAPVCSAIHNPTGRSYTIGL

No constants are given. Whether binding was seen depends on the method and setting. Binding seen in cells or lysates may run through a third protein. Some results given as binding are weak or reduced against the parent protein; the word gives no strength. For part of these data: Where a sequence is shown, tags or fusion partners need not be part of it.

The target in test [1] is T1, ERG (endogenous, from TMPRSS2:ERG-positive VCaP cells) (human (endogenous in VCaP)) (UniProt P11308).
T1 sequence: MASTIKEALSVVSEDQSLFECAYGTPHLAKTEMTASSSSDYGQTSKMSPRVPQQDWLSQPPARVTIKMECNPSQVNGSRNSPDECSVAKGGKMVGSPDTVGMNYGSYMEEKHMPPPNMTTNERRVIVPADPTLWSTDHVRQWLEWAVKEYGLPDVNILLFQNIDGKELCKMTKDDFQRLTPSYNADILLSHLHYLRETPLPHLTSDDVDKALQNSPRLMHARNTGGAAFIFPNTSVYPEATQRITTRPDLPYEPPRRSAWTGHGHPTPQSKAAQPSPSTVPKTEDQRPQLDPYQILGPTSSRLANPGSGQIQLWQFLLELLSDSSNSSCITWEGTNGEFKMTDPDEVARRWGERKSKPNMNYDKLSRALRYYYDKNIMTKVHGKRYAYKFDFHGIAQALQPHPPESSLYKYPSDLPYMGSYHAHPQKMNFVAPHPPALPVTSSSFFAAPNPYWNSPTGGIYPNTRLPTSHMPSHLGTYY
The experiment in a line: co-IP; VCaP cells, untreated or R1881-treated; ERG or control IgG antibody coupled to magnetic beads, incubated with lysate overnight at 4 °C, washed with RIPA buffer; western blot. (In general: A western blot detects proteins with antibodies after separation by electrophoresis.)

Test [2] addresses T2, ERG (exogenous, Dox-inducible, in 22Rv1 cells) (UniProt P11308).
T2 sequence: T1 sequence
As to the kind of experiment: co-IP; 22Rv1 cells expressing exogenous ERG or DNA-binding defective ERG ('Dx'), with or without PRMT5 knockdown; ERG immunoprecipitation, western blot for ERG and PRMT5.

Another test concerns the target T3, HA-ERG (UniProt P11308).
T3 sequence: T1 sequence
As to the kind of experiment: co-IP; PC3 cells (AR-negative) overexpressing HA-ERG and V5-PRMT5; immunoprecipitation of HA-ERG, western blot.

The target of another test is FLAG-PRMT5 (UniProt O14744). As to the kind of experiment: co-IP; 293 cells (AR-negative) overexpressing FLAG-PRMT5 and ERG constructs; immunoprecipitation of FLAG-PRMT5, western blot.

Regarding “Androgen Receptor (endogenous, VCaP cells) (from UniProt P10275-1 1-920)”, the binding result in test [1] is given as “binds”. Turning to “PRMT5 (endogenous) (from UniProt O14744 1-637) (enzyme)”, the binding entry in test [2] and in test [1] was “binds” throughout.

Consider “V5-PRMT5 (from UniProt O14744 1-637) (enzyme)”, for which the binding result in the test with HA-ERG is recorded as “binds”.

B1: ERG FL: full-length ERG (protein, UniProt P11308 1-479)
chain: T1 sequence
As for B1, the binding result with FLAG-PRMT5 was “binds”.

B2: GFP-ERG (protein, UniProt P11308 1-479)
chain: T1 sequence
For the molecule B2, the binding result with FLAG-PRMT5 is recorded as “binds”.
